{"sequences": {"note": "Amino acid sequences for entries named in this document (tags omitted). A change or cut given only in a name is not applied to a line headed by its entry.", "UniProt P18054": "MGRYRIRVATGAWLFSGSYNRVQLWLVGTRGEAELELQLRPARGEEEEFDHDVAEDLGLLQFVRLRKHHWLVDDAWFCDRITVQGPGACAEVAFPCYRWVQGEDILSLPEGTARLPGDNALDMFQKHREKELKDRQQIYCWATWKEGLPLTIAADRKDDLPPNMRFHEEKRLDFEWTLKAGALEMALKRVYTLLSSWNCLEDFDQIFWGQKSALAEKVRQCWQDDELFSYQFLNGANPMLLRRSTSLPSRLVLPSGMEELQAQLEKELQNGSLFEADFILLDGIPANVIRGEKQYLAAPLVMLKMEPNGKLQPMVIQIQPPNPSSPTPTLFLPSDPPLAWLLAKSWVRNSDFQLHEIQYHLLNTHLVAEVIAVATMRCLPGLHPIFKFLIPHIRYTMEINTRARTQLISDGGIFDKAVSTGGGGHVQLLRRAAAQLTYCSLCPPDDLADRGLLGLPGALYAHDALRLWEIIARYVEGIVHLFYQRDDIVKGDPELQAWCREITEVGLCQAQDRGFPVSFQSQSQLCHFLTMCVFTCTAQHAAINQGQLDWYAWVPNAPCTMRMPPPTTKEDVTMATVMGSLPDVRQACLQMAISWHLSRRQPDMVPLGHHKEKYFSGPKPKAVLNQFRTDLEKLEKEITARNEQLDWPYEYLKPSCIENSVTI"}, "source": "PubChem BioAssay AID1671190", "about": "(National Center for Advancing Translational Sciences (NCATS), 2021)", "note": "Several values for one entry are separate records, joined by “and”; a condition that tells them apart may be missing. Equal entries are not always repeated. Hit rate of the full screen: of about 580,000 compounds, about 6,100 (1.1%) were called active. The inconclusive results got no clear call from the source; some entries with a clear call stand among them for comparison. The call rests on the fitted dose curve; in most records, active means well fitted inhibition curve with a large enough effect; inconclusive means small, poorly fitted or top-dose-only effect, or another doubt; inactive means no such curve, though single readings can be large or run the other way. Where the call is inconclusive, the potency comes from a doubtful curve fit. Potency means the concentration at half of the fitted maximal effect.", "data": [{"molecular_target": "Polyunsaturated fatty acid lipoxygenase ALOX12 (Homo sapiens) (UniProt P18054)", "test": "Primary qHTS assay for inhibitors of human arachidonate 12S-lipoxygenase (ALOX12): Round 2", "conditions": "purified 12hLO, xylenol orange hydroperoxide absorbance; series mostly up to 108 µM", "in_short": "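Purified human 12hLO (150 nM final) in 25 mM Hepes, 0.01% Triton X-100, pH 7.0 was preincubated 15 min at room temperature with compound. Then 40 uM arachidonic acid was added, 30 min. Hydroperoxide was read by Fe-XO absorbance ratio 573/405 nm.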", "values": [{"smiles": "O=C(Nc1ccc2ccccc2c1)c1cccc2ccccc12", "Potency": "inactive"}, {"smiles": "CC(C(=O)O)n1c(-c2ccn[nH]2)n[nH]c1=S", "note": "(stereo unspecified)", "Potency": "inconclusive: 6.31 µM [inhibitor, partial curve, poor fit]"}, {"smiles": "CCSCCC(=O)Nc1ccc(Cl)c(C(=O)NC)c1", "Potency": "inactive"}, {"smiles": "O=C(CCc1ncc(-c2ccccc2F)o1)Nc1ccncc1", "Potency": "inactive"}, {"smiles": "Cc1ccc(CN2CCCOCCNC(=O)CC2)s1", "Potency": "inactive"}, {"smiles": "COc1ccc(NC(=S)Nc2cc(C)[nH]n2)cc1Cl", "Potency": "inconclusive: 2.82 µM [inhibitor, full curve, poor fit]"}, {"smiles": "O=C(Nc1ccc(Cl)cc1)C1CC=CCC1C(=O)OCC(F)(F)C(F)F", "note": "(stereo unspecified)", "Potency": "inconclusive: 39.8 µM [inhibitor, partial curve]"}, {"smiles": "O=C(NCCc1cccc2cccnc12)c1cc[n+]([O-])cc1", "Potency": "inactive"}, {"smiles": "O=C(CSc1ncccc1-c1nc2ccccc2[nH]1)NC1CC1", "Potency": "inconclusive: 11.2 µM [inhibitor, full curve, poor fit]"}, {"smiles": "COc1ccc2nc(NC(=O)Cn3nc4c(cc3=O)CCCC4)sc2c1", "Potency": "inconclusive: 1.26 µM [inhibitor, full curve, poor fit]"}, {"smiles": "NC(=O)c1cccc(-c2cc(Nc3ccc(OC(F)(F)F)cc3)ncn2)c1", "Potency": "inconclusive: 61.1 µM [inhibitor, single point]"}, {"smiles": "O=C1C=C(O)c2cccc3cccc1c23", "Potency": "inconclusive: 44.7 µM [inhibitor, partial curve, poor fit]"}, {"smiles": "CCOc1ccc(-n2c(-c3ccc(C)cc3)nc3c(cnn3-c3ccccc3)c2=O)cc1", "Potency": "inactive"}, {"smiles": "Cc1ccccc1-c1n[nH]c(=S)n1/N=C/C=C/c1ccco1", "Potency": "inconclusive: 35.5 µM [inhibitor, partial curve, poor fit]"}, {"smiles": "CC1CN(C(=O)Cc2n[nH]c(=O)c3ccccc23)CCO1", "note": "(stereo unspecified)", "Potency": "inactive"}, {"smiles": "N#Cc1ccc(OCC(=O)N2CCN(S(=O)(=O)c3ccc(Cl)s3)CC2)cc1", "Potency": "inactive"}, {"smiles": "COc1ccc(C(=O)/C=C/N(C)C)cc1", "Potency": "inconclusive: 63.1 µM [inhibitor, partial curve, poor fit]"}, {"smiles": "c1ccc(-c2nc3ccccc3nc2-c2ccc(CN3CCC4(CC3)CNc3ccccc34)cc2)cc1", "Potency": "inconclusive: 44.7 µM [inhibitor, partial curve]"}, {"smiles": "CC(C)c1ccc(CCNC(=O)/C=C/c2cccs2)cc1", "Potency": "inconclusive: 11.2 µM [inhibitor, full curve, poor fit]"}, {"smiles": "OC[C@@H]1O[C@H](CNCc2ccc(F)cc2)[C@H](N2CCCC2)[C@@H]1O", "Potency": "inactive"}, {"smiles": "Cc1cc(C(=O)COC(=O)C(C)NC(N)=O)c(C)n1Cc1ccco1", "note": "(stereo unspecified)", "Potency": "inactive"}, {"smiles": "CC(C)C1CN(c2cncc(C(=O)N3CCCC3)n2)CCC(=O)N1CC1CC1", "note": "(stereo unspecified)", "Potency": "inactive"}, {"smiles": "COC/C=C/C1=CC2=CC(=O)C(C)(OC(=O)c3cnc4ccccc4n3)C(=O)C2=CN1CCOC", "note": "(stereo unspecified)", "Potency": "inconclusive: 28.2 µM [inhibitor, partial curve, poor fit]"}, {"smiles": "COC(=O)C1=C(C)N(C)C(=O)NC1c1cccc2ccccc12", "note": "(stereo unspecified)", "Potency": "inconclusive: 6.31 µM [inhibitor, partial curve, poor fit]"}, {"smiles": "CC(=O)N1CCC(Nc2nc(-c3cccnc3)nc3ccccc23)CC1", "Potency": "inconclusive: 3.98 µM [inhibitor, full curve, poor fit]"}, {"smiles": "C=CCNC(=O)NC(=O)COC(=O)CNS(=O)(=O)c1ccc(F)c(F)c1F", "Potency": "inconclusive: 39.8 µM [inhibitor, partial curve, poor fit]"}, {"smiles": "Cc1ncoc1C(=O)N1CCCC(c2nc(-c3cccnc3)no2)CCNC(=O)CC1", "note": "(stereo unspecified)", "Potency": "inactive"}, {"smiles": "CCOc1ccc(Br)cc1S(=O)(=O)Nc1cccnc1", "Potency": "inconclusive: 158 µM [inhibitor, partial curve, poor fit]"}, {"smiles": "O=S1(=O)N[C@@H](Cc2ccccc2)COc2cccc(N3CCN(Cc4ccccc4F)CC3)c21", "Potency": "inconclusive: 126 µM [inhibitor, single point]"}, {"smiles": "COc1ccccc1C(=O)N1CCN(C2CCN(Cc3ccccc3)CC2)CC1", "Potency": "inconclusive: 0.447 µM [inhibitor, full curve, poor fit]"}, {"smiles": "COc1cccc(CNc2ccc3c(c2)CCC3)c1", "Potency": "inconclusive: 3.16 µM [inhibitor, full curve, poor fit]"}, {"smiles": "COc1ccc(C(=O)c2sc(Nc3ccccc3F)nc2N)cc1", "Potency": "inconclusive: 56.2 µM [inhibitor, partial curve, poor fit] and inconclusive: 891 nM [inhibitor, full curve, poor fit]"}, {"smiles": "CCc1ccc(C(=O)Nc2cccc3ncccc23)cc1", "Potency": "inconclusive: 126 µM [inhibitor, single point]"}, {"smiles": "CCCNC(=O)C1(C)CCCN(Cc2ccccc2F)C1", "note": "(stereo unspecified)", "Potency": "inactive"}, {"smiles": "CC(=O)N/N=C/c1ccccc1", "Potency": "inactive"}, {"smiles": "Cc1cc(C(=O)O)ccc1-c1ccc(C=C(C#N)C#N)o1", "Potency": "inconclusive: 39.8 µM [inhibitor, partial curve, poor fit]"}, {"smiles": "Fc1cccc(-c2ncc(-c3ccccc3)o2)c1", "Potency": "inconclusive: 31.6 µM [inhibitor, single point]"}, {"smiles": "CN(CC(=O)Nc1ccc([N+](=O)[O-])cc1Br)Cc1c(F)cccc1Cl", "Potency": "inactive"}, {"smiles": "Cc1cccc(Nc2nc(N)c([N+](=O)[O-])c(N3CCOCC3)n2)c1", "Potency": "inactive"}, {"smiles": "CC(C)Cn1c(SCC#N)nc2ccccc2c1=O", "Potency": "inactive"}, {"smiles": "COc1ccc(-c2nc3c(c(SCC(=O)Nc4ccc(C(=O)O)cc4)n2)Cc2ccccc2O3)cc1", "Potency": "inconclusive: 56.2 µM [inhibitor, partial curve, poor fit]"}, {"smiles": "COCCn1cnc2c1c(=O)n(CC(=O)OCC#N)c(=O)n2Cc1ccccc1", "Potency": "inconclusive: 1.58 µM [inhibitor, full curve, poor fit]"}, {"smiles": "C#CC[N+](C)(C)CCCCCCCCC", "Potency": "inactive"}, {"smiles": "O=C(CCCCCn1c(=O)c2sccc2n(CC(=O)Nc2cccc(Cl)c2)c1=O)NCc1ccc2c(c1)OCO2", "Potency": "inconclusive: 50.1 µM [inhibitor, partial curve]"}, {"smiles": "CC(C)C(=O)Nc1ccc(-c2nc(-c3ccccc3)co2)cc1", "Potency": "inactive"}, {"smiles": "CC1(c2ccc(Cl)cc2Cl)OCC(Cn2ccnc2)O1", "note": "(stereo unspecified)", "Potency": "inconclusive: 0.398 µM [inhibitor, full curve, poor fit]"}]}]}
